Measured values: PubChem BioAssay AID248 (DTP/NCI, 2004)
The list does not hold the whole screen: it gathers tests that were run many times, whatever their T/C, doses with no T/C, and many T/C values between a quarter and a half above the control. Further doses and runs are listed elsewhere. T/C gives the treated animals as a percentage of the vehicle group. Some entries give survivors of the animals treated and no T/C: the source holds a T/C of zero for them, seemingly a mark for toxic or unscored doses. Some doses without a T/C left all or most animals alive at the check, yet need not have been tolerated: the source hardly ever lists a survival T/C far under the control, and the zero likely stands for such cases as well. Counts of survivors are from the toxicity check (mostly the fifth day) where no day follows; animals may have died later. Schedules are NCI's codes, taken here to give the interval after Q, in days (D) or hours (H), and the number of doses after X.

Test system: L1210 leukemia ip in BDF1 mice, survival T/C
Experiment: NCI In Vivo Anticancer Drug Screen. Data for tumor model L1210 Leukemia (intraperitoneal) in B6D2F1 (BDF1) mice
Conditions: T/C endpoint: mean survival time, higher T/C = longer survival
[1] = dose: 400.0 mg/kg/injection, schedule: Q04DX003 (ip), vehicle: saline
[2] = dose: 200.0 mg/kg/injection, schedule: Q01DX009 (ip), vehicle: Klucel (hydroxypropylcellulose) (HPC)
[3] = dose: 100.0 mg/kg/injection, schedule: Q01DX001 (ip), vehicle: saline with Tween-80
[4] = dose: 400.0 mg/kg/injection, schedule: Q04DX003 (ip), vehicle: Klucel (hydroxypropylcellulose) (HPC)
[5] = dose: 200.0 mg/kg/injection, schedule: Q04DX003 (ip), vehicle: saline with Tween-80
[6] = dose: 400.0 mg/kg/injection, schedule: Q04DX003 (ip), vehicle: saline with Tween-80
[7] = dose: 400.0 mg/kg/injection, schedule: Q01DX001 (ip), vehicle: saline

SMILES: CCCNC
- survivor count (dose: 200.0 mg/kg/injection, schedule: Q01DX009 (ip), vehicle: saline): 0 of 6
- survivor count [1]: 1 of 6

SMILES: CCC[As](=O)(O)C(C)C
- survivor count (dose: 200.0 mg/kg/injection, schedule: Q04DX003 (ip), vehicle: saline): 3 of 6
- survivor count [1]: 0 of 6

SMILES: C#CCCCCCC#CCCCCCC#CCCCCCC#C
- survivor count (dose: 400.0 mg/kg/injection, schedule: Q04DX003 (ip), vehicle: acetone): 3 of 6

SMILES: CCCCCCNC(=O)c1ccc(C(=O)NCCCCCC)cc1
- survivor count [2]: 6 of 6

SMILES: CC1(C)N=C(N)N=C(N)N1c1cccc(OCCCOc2cccc(N)c2)c1
- survivor count [3]: 1 of 6
- survivor count (dose: 100.0 mg/kg/injection, schedule: Q01DX001 (ip), vehicle: saline): 0 of 6
- survivor count (dose: 200.0 mg/kg/injection, schedule: Q01DX001 (ip), vehicle: saline with Tween-80): 1 of 6
- survivor count (dose: 400.0 mg/kg/injection, schedule: Q01DX001 (ip), vehicle: saline with Tween-80): 0 of 6

SMILES: Cc1ccc(/C=C/[N+](=O)[O-])cc1
- survivor count (dose: 100.0 mg/kg/injection, schedule: Q04DX003 (ip), vehicle: Klucel (hydroxypropylcellulose) (HPC)): 6 of 6
- survivor count (dose: 200.0 mg/kg/injection, schedule: Q04DX003 (ip), vehicle: Klucel (hydroxypropylcellulose) (HPC)): 6 of 6
- survivor count [4]: 0 of 6

SMILES: O=C(COc1ccc(Cl)c(Cl)c1)NCc1ccc[n+](Cc2ccc(S(=O)(=O)F)cc2Cl)c1
- survivor count (dose: 100.0 mg/kg/injection, schedule: Q04DX003 (ip), vehicle: saline with Tween-80): 5 of 6
- survivor count [5]: 0 of 6
- survivor count [6]: 0 of 6

SMILES: CC(C)(C#N)C(C)(C)c1cnc2ccccc2c1
- survivor count [4]: 0 of 6

SMILES: CS(=O)(=O)c1cc(N2CC2)ncn1
- survivor count (dose: 128.0 mg/kg/injection, schedule: Q01DX015 (ip), vehicle: carboxymethylcellulose (CMC)): 2 of 6

SMILES: O=C1SC(c2ccccc2)(c2ccccc2)c2cscc21
- survivor count (dose: 200.0 mg/kg/injection, schedule: Q01DX009 (ip), vehicle: saline with Tween-80): 3 of 3

SMILES: COCCCN1CC2CCCC1O2 (stereo not drawn)
- survivor count [7]: 2 of 4

SMILES: CC1CCCCN1C(=O)Nc1cccc(C(F)(F)F)c1 (stereo not drawn)
- survivor count (dose: 100.0 mg/kg/injection, schedule: Q04DX002 (ip), vehicle: gum acacia): 3 of 3
- survivor count (dose: 200.0 mg/kg/injection, schedule: Q04DX003 (ip), vehicle: gum acacia): 3 of 3

SMILES: NC(=S)NN=C1CCCCCCCCC1
- survivor count (dose: 200.0 mg/kg/injection, schedule: Q01DX001 (ip), vehicle: saline): 0 of 4
- survivor count [7]: 0 of 4

SMILES: C[N+](C)(CC(=O)Nc1ccc(Cl)c(Cl)c1)CC(=O)c1ccc(Cl)cc1
- survivor count [5]: 6 of 6
- survivor count [6]: 4 of 6

SMILES: CC1=CP(=O)(Oc2ccc([N+](=O)[O-])cc2)CC1 (stereo not drawn)
- survivor count (dose: 150.0 mg/kg/injection, schedule: Q01DX001 (ip), vehicle: saline): 0 of 6
- survivor count (dose: 300.0 mg/kg/injection, schedule: Q01DX001 (ip), vehicle: saline): 0 of 6

SMILES: NC(=O)c1ccccc1OC(=O)Nc1ccccc1
- survivor count [2]: 1 of 6
- survivor count (dose: 400.0 mg/kg/injection, schedule: Q04DX002 (ip), vehicle: Klucel (hydroxypropylcellulose) (HPC)): 3 of 3

SMILES: C/C=C1/C[C@@H](C)[C@@](C)(O)C(=O)OCC2=CCN3CC[C@@H](OC1=O)[C@@H]23
- survivor count (dose: 200.0 mg/kg/injection, schedule: Q01DX001 (ip), vehicle: carboxymethylcellulose (CMC)): 1 of 6
- survivor count (dose: 400.0 mg/kg/injection, schedule: Q01DX001 (ip), vehicle: carboxymethylcellulose (CMC)): 0 of 6

SMILES: CC(C)(Cl)/N=N/C(C)(C)Cl
- survivor count (dose: 200.0 mg/kg/injection, schedule: Q01DX001 (ip), vehicle: Klucel (hydroxypropylcellulose) (HPC)): 6 of 6
- survivor count (dose: 400.0 mg/kg/injection, schedule: Q01DX001 (ip), vehicle: Klucel (hydroxypropylcellulose) (HPC)): 1 of 6

SMILES: CC(=O)OCC1OC(NC(=O)N(CCCl)N=O)C(OC(C)=O)C(OC(C)=O)C1OC(C)=O (stereo not drawn)
- survivor count (dose: 44.0 mg/kg/injection, schedule: Q01DX001 (ip), vehicle: saline with Tween-80): 10 of 10
- survivor count (dose: 67.0 mg/kg/injection, schedule: Q01DX001 (ip), vehicle: saline with Tween-80): 10 of 10
- survivor count [3]: 10 of 10

SMILES: CCCC1C2=C(C(=O)OC2=O)C2C(CC)CC3=C(C(=O)OC3=O)C12 (stereo not drawn)
- survivor count (dose: 335.0 mg/kg/injection, schedule: Q01DX001 (ip), vehicle: Klucel (hydroxypropylcellulose) (HPC)): 1 of 6
